The assay addresses T1, Flag-REST, overexpressed in HEK293T cells (UniProt Q13127).
T1 sequence: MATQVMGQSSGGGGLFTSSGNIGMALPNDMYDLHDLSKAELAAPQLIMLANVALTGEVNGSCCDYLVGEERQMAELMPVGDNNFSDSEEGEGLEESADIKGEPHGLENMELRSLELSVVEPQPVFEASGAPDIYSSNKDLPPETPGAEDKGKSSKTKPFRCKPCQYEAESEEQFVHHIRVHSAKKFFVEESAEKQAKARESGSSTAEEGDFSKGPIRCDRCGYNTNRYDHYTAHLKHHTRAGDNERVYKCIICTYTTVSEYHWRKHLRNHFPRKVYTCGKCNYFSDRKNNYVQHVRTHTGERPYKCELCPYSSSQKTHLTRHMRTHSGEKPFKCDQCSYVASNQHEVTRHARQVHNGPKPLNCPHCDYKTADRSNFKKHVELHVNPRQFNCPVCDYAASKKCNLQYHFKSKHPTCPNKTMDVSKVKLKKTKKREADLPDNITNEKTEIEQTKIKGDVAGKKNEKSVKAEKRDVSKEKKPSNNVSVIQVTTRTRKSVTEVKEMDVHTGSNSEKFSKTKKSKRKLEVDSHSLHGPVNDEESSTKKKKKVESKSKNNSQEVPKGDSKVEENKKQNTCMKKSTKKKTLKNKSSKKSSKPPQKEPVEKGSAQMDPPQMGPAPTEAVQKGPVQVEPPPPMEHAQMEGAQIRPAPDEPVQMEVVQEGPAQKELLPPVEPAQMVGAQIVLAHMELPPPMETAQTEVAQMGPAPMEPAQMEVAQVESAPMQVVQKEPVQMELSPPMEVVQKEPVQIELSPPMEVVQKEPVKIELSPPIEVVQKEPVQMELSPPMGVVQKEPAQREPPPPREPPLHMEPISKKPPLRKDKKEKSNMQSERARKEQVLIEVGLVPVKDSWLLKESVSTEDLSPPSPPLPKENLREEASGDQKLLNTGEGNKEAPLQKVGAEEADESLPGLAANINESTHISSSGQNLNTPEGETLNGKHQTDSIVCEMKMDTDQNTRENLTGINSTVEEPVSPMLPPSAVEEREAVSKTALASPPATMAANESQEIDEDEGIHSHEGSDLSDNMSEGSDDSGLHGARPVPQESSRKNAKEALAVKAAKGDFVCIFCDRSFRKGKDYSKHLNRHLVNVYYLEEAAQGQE
The assay can be described thus: affinity purification with mass spectrometry; Flag-REST overexpressed in WT and SIRT6 KO HEK293T cells; immunoprecipitated on Flag beads; samples separated by SDS gel electrophoresis; triplicates; empty vector as control.

The chains behind the UniProt entries cited, without tags or fusion partners.
UniProt Q8N6T7: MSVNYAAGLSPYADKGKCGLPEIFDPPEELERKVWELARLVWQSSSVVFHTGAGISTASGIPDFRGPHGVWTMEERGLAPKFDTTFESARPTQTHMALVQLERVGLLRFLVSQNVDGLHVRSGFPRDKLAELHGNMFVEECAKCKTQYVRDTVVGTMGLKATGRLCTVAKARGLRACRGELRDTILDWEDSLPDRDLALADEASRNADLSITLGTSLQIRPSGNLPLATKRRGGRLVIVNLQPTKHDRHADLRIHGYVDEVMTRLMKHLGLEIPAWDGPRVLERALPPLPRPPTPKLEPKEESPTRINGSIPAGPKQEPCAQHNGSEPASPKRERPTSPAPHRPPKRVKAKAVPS

These are yes or no findings as the source states them, for the method shown. Binding seen in cells or lysates may run through a third protein. A yes stands for co-enrichment or nearness to the bait. Other partners may have been found. No binding means not detected with the bait. Tags and fused reporters may be left off the sequences shown.

For the substance “SIRT6 (from UniProt Q8N6T7 1-355) (enzyme)”, the binding result is reported as “no binding”.

The record behind these values is paper PMC11543946.
